Assay results published in the supplement of paper PMC4371806.
The full ranking holds about 2,300 compounds; the median of “plate-normalized OD600 growth (mean of duplicates)” is about 0.29, and the lowest 2% start at about 0.22. The list shows a part of the results.

Test system: Escherichia coli BW25113
Assay: plate-normalized OD600 growth (mean of duplicates) (OD600 (normalized)); higher = more growth (less inhibition)
Conditions: 10 µM
Description: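 E. coli BW25113 in LB (100 µl, 96-well, no shaking) was exposed to 10 µM of each compound from a ~30,000-member library and grown at 37°C for 24 h or 15°C for 48 h, in duplicate. Growth was read as OD600 and the duplicate ODs were normalized across screening plates to correct plate-to-plate variation. Hits were >3σ below the mean OD600 at 15°C and <2σ below the mean at 37°C.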

| Compound | plate-normalized OD600 growth (temperature: 15°C, 48 h) | plate-normalized OD600 growth (temperature: 37°C, 24 h) |
| --- | --- | --- |
| COC(=O)c1c(OC)ccc(N=CNO)c1OC | 0.247 | 0.621 |
| Brc1cccc(Nc2nc(N/N=C\c3ccc4c(c3)OCO4)nc(N3CCOCC3)n2)c1 | 0.226 | 0.626 |
| COc1ccc(C)c2c1NC(c1ccc(S(=O)(=O)N3CCOCC3)cc1)C1CC=CC21 (stereo not given) | 0.264 | 0.62 |
| O=C1CCCC2=C1C(c1cccnc1)CC(=O)N2c1ccc(F)cc1 (stereo not given) | 0.27 | 0.635 |
| N#C/C(=C\c1ccc(Oc2ccccc2)nc1)S(=O)(=O)c1ccccc1 | 0.248 | 0.608 |
| Cc1ccsc1/C=N\Nc1nonc1N | 0.245 | 0.658 |
| CCOC(=O)c1ccc2oc3ccc(O)cc3c(=O)c2c1 | 0.258 | 0.61 |
| CCSC1OC(OC=O)C(OC=O)C(OC=O)C1NC=O (stereo not given) | 0.256 | 0.619 |
| O=C(NCc1cccnc1)c1cc2ccccc2oc1=O | 0.256 | 0.635 |
| Brc1ccc(C=Nc2ccc(Nc3ccccc3)cc2)s1 | 0.245 | 0.651 |
| COc1cc(NC(=S)N2CCN(c3ccccc3OC)CC2)c(OC)cc1Cl | 0.231 | 0.614 |
| CCOC(=O)NC(=O)c1cn(Nc2ncc(Cl)cc2C(F)(F)F)c(=O)[nH]c1=O | 0.279 | 0.642 |
| CCCCCCc1cc2c(C)cc(=O)oc2cc1O | 0.243 | 0.617 |
| O=C(NC1Cc2ccccc2C1)c1cncc(Br)c1 | 0.281 | 0.658 |
| COc1cccc(CC(=O)NC2CCN(c3nccc(C(F)(F)F)n3)CC2)c1 | 0.252 | 0.642 |
| CC(C)=NNC(=O)CNC(=O)CNS(=O)(=O)c1ccc([N+](=O)[O-])cc1 | 0.231 | 0.603 |
| Cc1sc(NC(=O)c2cc3ccccc3oc2=O)nc1-c1ccc(-c2ccccc2)cc1 | 0.253 | 0.625 |
| O=C(CN(c1ccc(Cl)cc1)S(=O)(=O)c1ccccc1)N/N=C/c1cccc(O)c1O | 0.244 | 0.638 |
| CCCCc1ccc(-n2nc3cc(C)c(N)cc3n2)cc1 | 0.254 | 0.613 |
| CCC1SC(=Nc2ccccc2C)NC1=O (stereo not given) | 0.222 | 0.636 |
| O=C(NNC(=S)Nc1cccc(Cl)c1)c1ccncc1 | 0.234 | 0.597 |
| CC(=O)c1ccc2c3c(onc13)-c1ccccc1C2=O | 0.253 | 0.644 |
| O=C1/C(=C\c2ccccc2)N=C(c2ccccc2)N1CNc1nccs1 | 0.254 | 0.585 |
| Nc1[nH]c(=O)c(CO)c(N)c1S(=O)(=O)c1ccccc1 | 0.211 | 0.632 |

| Compound | plate-normalized OD600 growth (temperature: 15°C, 48 h) | plate-normalized OD600 growth (temperature: 37°C, 24 h) |
| --- | --- | --- |
| COC(=O)c1ccsc1N | 0.253 | 0.623 |
| CSC(=CC(=O)c1ccc(Cl)cc1)SC | 0.236 | 0.624 |
| COC(=O)C(=NNc1ccccc1)C(=O)OC | 0.253 | 0.62 |
| COc1cc(NC(=O)CCN2CCC(C)CC2)cc(OC)c1 | 0.217 | 0.647 |
| N/C(=N/OS(=O)(=O)c1ccc(Cl)cc1)c1ccc(C(F)(F)F)cc1 | 0.26 | 0.613 |
| COc1ccc2c(=S)c(-c3csc(C)n3)c(C)oc2c1 | 0.251 | 0.613 |
| O=C(NCc1ccc2c(c1)OCO2)Nc1ccccc1 | 0.25 | 0.627 |
| CCC(=O)Nc1cc(F)ccc1C | 0.253 | 0.623 |
| O=C(OC1CCCCC1)c1ccc(NS(=O)(=O)c2ccc([N+](=O)[O-])cc2)cc1 | 0.262 | 0.622 |
| CC(=O)Nc1ccc(S(=O)(=O)NCCCN2CCN(Cc3ccccc3)CC2)cc1Cl | 0.222 | 0.644 |
| Cc1ccc(C2=NOC(=O)/C2=C\c2ccc(F)c(Oc3ccccc3)c2)cc1 | 0.256 | 0.657 |
| COc1cc(C(=O)N/N=C/c2cc(C)n(-c3cccc(C(=O)O)c3C)c2C)ccc1I | 0.258 | 0.672 |
| COc1ccc(O)c(C2NC(CC(C)C)(C(=O)O)C3C(=O)N(c4ccccc4OC)C(=O)C23)c1 (stereo not given) | 0.245 | 0.613 |
| Cc1ccc(C(=O)c2c(NC(=O)c3ccncc3)sc3c2CCCC3)cc1 | 0.251 | 0.635 |
| O=C(CNC(=O)C(c1ccccc1)c1ccccc1)N/N=C/c1cc([N+](=O)[O-])cc([N+](=O)[O-])c1O | 0.265 | 0.633 |
| CC(=O)Nc1ccc(NC(=O)CSc2nnc(NS(C)(=O)=O)s2)cc1 | 0.252 | 0.63 |
| C=CCn1c(Sc2ncc([N+](=O)[O-])s2)n[nH]c1=O | 0.181 | 0.588 |
| COc1ccc(C2C(C(C)=O)=C(C)N=C3SCC(=O)N32)c(OC)c1 (stereo not given) | 0.242 | 0.592 |
| Cc1ccc2[nH]c(C)c(CCNC(=O)c3sc4ccccc4c3Cl)c2c1 | 0.262 | 0.62 |
| CC(=O)c1ccc(N=Cc2cc(C)n(-c3ccc(C)c(C)c3)c2C)cc1 | 0.227 | 0.634 |
| Cc1ccc(C(C)C)c(OCC(=O)N/N=C/c2ccc(O)c(O)c2)c1 | 0.255 | 0.631 |
| O=C1/C(=C/c2ccco2)N=C(c2ccccc2)N1c1ccc(C(=O)N2c3ccccc3Sc3ccccc32)cc1 | 0.251 | 0.644 |
| Nc1c(C(=O)c2cc3ccccc3o2)oc2ccc(Br)cc12 | 0.24 | 0.629 |
| O=C(NC(=S)Nc1ccc(Cl)cc1)c1ccc([N+](=O)[O-])o1 | 0.266 | 0.645 |

| Compound | plate-normalized OD600 growth (temperature: 15°C, 48 h) | plate-normalized OD600 growth (temperature: 37°C, 24 h) |
| --- | --- | --- |
| Cc1ccc(NC(=S)C(C#N)C(=O)N2CCCC2)c(C)c1 (stereo not given) | 0.251 | 0.624 |
| CC(=O)c1cnn(-c2ccccc2)c1C | 0.259 | 0.623 |
| C=CCOc1ccc2c(C)c(CCCC)c(=O)oc2c1 | 0.237 | 0.628 |
| COc1ccc(OCc2nc3ccccc3n2CC(C)C)cc1 | 0.234 | 0.627 |
| Cc1ccccc1N1C(=O)c2ccccc2C1=O | 0.23 | 0.61 |
| Cc1ccccc1OCC1Cn2c(nc3c2c(=O)[nH]c(=O)n3C)O1 (stereo not given) | 0.253 | 0.602 |
| O=S(=O)(NCc1ccc2c(c1)OCO2)c1ccc(F)c(Cl)c1 | 0.234 | 0.616 |
| COc1ccc(S(=O)(=O)NCCc2c(C)[nH]c3ccc(Br)cc23)c2ccccc12 | 0.249 | 0.605 |
| CC(C)(C)C(=O)Nc1cccc(C(=O)Nc2ccc3c(c2)-c2cc(NC(=O)c4cccc(NC(=O)C(C)(C)C)c4)ccc2C3)c1 | 0.254 | 0.631 |
| Cc1oc(N=Cc2ccc(-c3ccc([N+](=O)[O-])cc3)o2)c(C#N)c1C | 0.241 | 0.597 |
| NCc1nc2ccccc2n1Cc1ccccc1 | 0.24 | 0.606 |
| CCc1c(C)nc2cc(-c3ccc(Cl)cc3)[nH]n2c1=O | 0.214 | 0.632 |
| N#CC1=C(S)N=C(N)C(c2nc(-c3ccccc3)cs2)C12CCCCC2 (stereo not given) | 0.24 | 0.624 |
| CCN(CC)c1ccc(O)c(C=Nc2ccc(S(=O)(=O)O)cc2C(=O)O)c1 | 0.254 | 0.613 |
| CC(C)C(=O)Nc1cccc2nsnc12 | 0.237 | 0.605 |
| Nc1ccc(NC(=O)c2cccc(C(=O)Nc3ccc(N)cc3)c2)cc1 | 0.253 | 0.616 |
| CCOC(=O)c1c(NC(=O)c2cc(S(N)(=O)=O)c(Cl)cc2Cl)sc2c1CCCC2 | 0.238 | 0.603 |
| COC(=O)c1ccccc1NC(=O)CSc1ccccc1 | 0.248 | 0.629 |
| Cc1ccc2nc(Cl)c(C=Nc3ccccn3)cc2c1 | 0.226 | 0.611 |
| FC(F)(F)c1ccc(-n2cncn2)nc1 | 0.252 | 0.62 |
| CCN(CC)CCOc1ccccc1OC | 0.235 | 0.602 |
| CC(=O)Nc1ncc(Cc2ccc(F)cc2)s1 | 0.252 | 0.629 |
| CCCCOc1cccc(NC(=O)CCSc2nccn2C)c1 | 0.25 | 0.643 |
| CCOC(=O)Cn1nnc(-c2ccc(S(C)(=O)=O)cc2)n1 | 0.229 | 0.632 |

| Compound | plate-normalized OD600 growth (temperature: 15°C, 48 h) | plate-normalized OD600 growth (temperature: 37°C, 24 h) |
| --- | --- | --- |
| N#CC1=C(N)Oc2n[nH]c(-c3cccs3)c2C12C(=O)Nc1ccc([N+](=O)[O-])cc12 (stereo not given) | 0.265 | 0.618 |
| C=CCc1cccc2cc(C(=O)Nc3ccccc3)c(=O)oc12 | 0.233 | 0.609 |
| COc1ccc(C(C)=O)cc1CSC(=NS(=O)(=O)c1ccccc1)Nc1cccc(F)c1 | 0.235 | 0.61 |
| CN1CCN(C2=CC(=O)OC23CCCCC3)CC1 | 0.247 | 0.626 |
| CCCCCCCCNS(=O)(=O)c1ccc(N2C(=O)CCC2=O)cc1 | 0.25 | 0.613 |
| c1ccc2c(c1)nc(N1CCCC1)n2CCN1CCCCC1 | 0.249 | 0.619 |
| CCOC(=O)c1ccc2[nH]c(-c3ccccc3)cc(=O)c2c1 | 0.257 | 0.615 |
| CC1=NN(c2cccc(S(N)(=O)=O)c2)C(=O)C1 | 0.225 | 0.612 |
| C/C(=N/O)c1ccc2c(c1)C(C)(C)CCC2(C)C | 0.256 | 0.629 |
| COc1ccc(OCC(=O)N/N=C/c2ccc(I)cc2)cc1 | 0.251 | 0.617 |
| O=C(Nc1ccc(F)c(Cl)c1)c1ccc(N2C(=O)/C(=C/c3ccccc3)N=C2c2ccccc2)cc1 | 0.238 | 0.653 |
| CN(C)N=Nc1ccc(S(=O)(=O)NC(=O)Cc2ccccc2)cc1 | 0.24 | 0.612 |
| COc1ccc(/C=N/NC(=O)c2nnn(-c3nonc3N)c2-c2ccccc2)cc1OC | 0.241 | 0.615 |
| O=C(Oc1ccc(-c2cnc3ccccc3n2)cc1)c1ccco1 | 0.235 | 0.628 |
| CC(C)(C)c1cc(CCCSCCc2cc(C(C)(C)C)c(O)c(C(C)(C)C)c2)cc(C(C)(C)C)c1O | 0.243 | 0.622 |
| COCc1cc(C)nc2sc(C(=O)Nc3cc4c(cc3C#N)OCO4)c(N)c12 | 0.249 | 0.65 |
| COc1ccc(S(=O)(=O)c2cc(NC(=O)c3ccc(Cl)cc3)c(C)c(C)c2O)cc1 | 0.24 | 0.618 |
| O=C(NCCOc1ccc(Cl)cc1)C(=O)Nc1cccc(C(F)(F)F)c1 | 0.242 | 0.617 |
| COc1ccc(Cl)cc1S(=O)(=O)NCCc1c(C)[nH]c2ccccc12 | 0.254 | 0.62 |
| N#CC(C(=O)Nc1cccc(C(F)(F)F)c1)C(=S)Nc1ccccc1Cl (stereo not given) | 0.254 | 0.644 |
| CCOC(=O)C(C)Sc1nc(CC)c(C)cc1C#N (stereo not given) | 0.248 | 0.613 |
| N#C/C(=C\c1ccc(/C=C(\C#N)c2nn(-c3ccccc3)c(N)c2C#N)cc1)c1nn(-c2ccccc2)c(N)c1C#N | 0.267 | 0.652 |
| Cc1onc(-c2ccccc2Cl)c1C(=O)N1CCCN2C(=O)c3ccccc3C21 (stereo not given) | 0.239 | 0.605 |

Gathered by group: the entries above containing a nitro group on carbon

| Compound | plate-normalized OD600 growth (temperature: 15°C, 48 h) | plate-normalized OD600 growth (temperature: 37°C, 24 h) |
| --- | --- | --- |
| CC(C)=NNC(=O)CNC(=O)CNS(=O)(=O)c1ccc([N+](=O)[O-])cc1 | 0.231 | 0.603 |
| O=C(OC1CCCCC1)c1ccc(NS(=O)(=O)c2ccc([N+](=O)[O-])cc2)cc1 | 0.262 | 0.622 |
| O=C(CNC(=O)C(c1ccccc1)c1ccccc1)N/N=C/c1cc([N+](=O)[O-])cc([N+](=O)[O-])c1O | 0.265 | 0.633 |
| C=CCn1c(Sc2ncc([N+](=O)[O-])s2)n[nH]c1=O | 0.181 | 0.588 |
| O=C(NC(=S)Nc1ccc(Cl)cc1)c1ccc([N+](=O)[O-])o1 | 0.266 | 0.645 |
| Cc1oc(N=Cc2ccc(-c3ccc([N+](=O)[O-])cc3)o2)c(C#N)c1C | 0.241 | 0.597 |
| N#CC1=C(N)Oc2n[nH]c(-c3cccs3)c2C12C(=O)Nc1ccc([N+](=O)[O-])cc12 (stereo not given) | 0.265 | 0.618 |
